Source: doi:10.1101/2020.03.10.983148
Results are given in words; binding and its absence hold for the method and conditions named. Binding seen in cells or lysates may run through a third protein. Here binding means that the protein was enriched with, or labelled near, the bait; the list need not be complete. For some of these results: Tags and fused reporters may be left off the sequences shown. Values belong to the binder of their own block, whether it stands above or below them.

Key:
Experiment in all cases: affinity purification with mass spectrometry
[1] = biological target: T1, full-length Halo-tagged human TET3 (human), O43151; details: remark: other sources report otherwise
T1 chain: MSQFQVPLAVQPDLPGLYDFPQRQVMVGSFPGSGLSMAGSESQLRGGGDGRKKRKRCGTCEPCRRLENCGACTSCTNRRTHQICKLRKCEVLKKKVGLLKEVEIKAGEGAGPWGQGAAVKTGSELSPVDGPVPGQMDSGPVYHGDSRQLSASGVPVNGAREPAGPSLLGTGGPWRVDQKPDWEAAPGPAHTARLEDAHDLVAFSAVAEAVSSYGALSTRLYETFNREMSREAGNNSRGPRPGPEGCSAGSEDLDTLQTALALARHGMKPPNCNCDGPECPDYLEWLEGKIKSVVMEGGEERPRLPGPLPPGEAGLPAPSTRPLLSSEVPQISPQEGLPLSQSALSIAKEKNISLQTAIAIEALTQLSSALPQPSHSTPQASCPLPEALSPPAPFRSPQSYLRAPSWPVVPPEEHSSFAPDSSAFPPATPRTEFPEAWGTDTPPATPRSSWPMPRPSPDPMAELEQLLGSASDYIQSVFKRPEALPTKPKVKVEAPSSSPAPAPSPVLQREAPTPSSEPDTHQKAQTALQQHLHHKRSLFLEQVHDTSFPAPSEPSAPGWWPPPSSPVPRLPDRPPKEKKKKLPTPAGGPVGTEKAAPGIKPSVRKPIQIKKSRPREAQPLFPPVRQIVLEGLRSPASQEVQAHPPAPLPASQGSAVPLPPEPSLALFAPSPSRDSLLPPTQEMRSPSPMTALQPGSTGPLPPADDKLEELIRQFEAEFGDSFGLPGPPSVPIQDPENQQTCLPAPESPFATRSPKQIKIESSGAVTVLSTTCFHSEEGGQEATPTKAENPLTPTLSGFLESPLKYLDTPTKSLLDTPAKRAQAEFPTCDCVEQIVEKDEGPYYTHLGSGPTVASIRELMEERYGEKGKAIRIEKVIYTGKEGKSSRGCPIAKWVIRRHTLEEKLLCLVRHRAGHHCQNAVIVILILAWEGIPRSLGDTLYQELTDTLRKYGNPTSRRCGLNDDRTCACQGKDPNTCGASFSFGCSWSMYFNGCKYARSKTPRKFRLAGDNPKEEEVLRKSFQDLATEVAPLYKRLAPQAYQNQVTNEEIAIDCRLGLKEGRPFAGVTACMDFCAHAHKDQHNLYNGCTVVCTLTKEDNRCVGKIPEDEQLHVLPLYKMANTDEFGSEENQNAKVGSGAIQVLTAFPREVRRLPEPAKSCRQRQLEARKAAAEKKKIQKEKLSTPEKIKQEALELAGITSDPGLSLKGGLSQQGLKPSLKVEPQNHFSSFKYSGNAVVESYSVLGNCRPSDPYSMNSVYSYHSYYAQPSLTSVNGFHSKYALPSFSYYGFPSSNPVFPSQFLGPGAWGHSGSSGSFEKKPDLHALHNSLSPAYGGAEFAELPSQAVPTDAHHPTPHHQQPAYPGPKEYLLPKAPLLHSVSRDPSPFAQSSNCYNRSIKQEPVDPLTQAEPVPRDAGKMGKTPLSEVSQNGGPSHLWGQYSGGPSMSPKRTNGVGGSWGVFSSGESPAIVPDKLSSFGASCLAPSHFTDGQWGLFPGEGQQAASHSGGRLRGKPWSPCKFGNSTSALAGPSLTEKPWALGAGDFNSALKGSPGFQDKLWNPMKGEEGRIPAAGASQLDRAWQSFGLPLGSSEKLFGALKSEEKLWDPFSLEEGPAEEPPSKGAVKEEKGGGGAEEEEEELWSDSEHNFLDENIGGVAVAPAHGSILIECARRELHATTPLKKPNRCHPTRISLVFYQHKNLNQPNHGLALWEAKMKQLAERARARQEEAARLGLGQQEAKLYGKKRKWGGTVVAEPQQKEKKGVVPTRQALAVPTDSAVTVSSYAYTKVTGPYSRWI

[2] = biological target: full-length Halo-tagged human TET1 (human), Q8NFU7; details: remark: other sources report otherwise
[3] = biological target: full-length Halo-tagged human TET2 (human) (UniProt Q6N021)
[4] = biological target: full-length Halo-tagged human TET3 (human) (UniProt O43151)

binding [1]: binds
B1: SIN3A, endogenous in HEK293T cells, Q96ST3 1-1273 (protein)
chain: MKRRLDDQESPVYAAQQRRIPGSTEAFPHQHRVLAPAPPVYEAVSETMQSATGIQYSVTPSYQVSAMPQSSGSHGPAIAAVHSSHHHPTAVQPHGGQVVQSHAHPAPPVAPVQGQQQFQRLKVEDALSYLDQVKLQFGSQPQVYNDFLDIMKEFKSQSIDTPGVISRVSQLFKGHPDLIMGFNTFLPPGYKIEVQTNDMVNVTTPGQVHQIPTHGIQPQPQPPPQHPSQPSAQSAPAPAQPAPQPPPAKVSKPSQLQAHTPASQQTPPLPPYASPRSPPVQPHTPVTISLGTAPSLQNNQPVEFNHAINYVNKIKNRFQGQPDIYKAFLEILHTYQKEQRNAKEAGGNYTPALTEQEVYAQVARLFKNQEDLLSEFGQFLPDANSSVLLSKTTAEKVDSVRNDHGGTVKKPQLNNKPQRPSQNGCQIRRHPTGTTPPVKKKPKLLNLKDSSMADASKHGGGTESLFFDKVRKALRSAEAYENFLRCLVIFNQEVISRAELVQLVSPFLGKFPELFNWFKNFLGYKESVHLETYPKERATEGIAMEIDYASCKRLGSSYRALPKSYQQPKCTGRTPLCKEVLNDTWVSFPSWSEDSTFVSSKKTQYEEHIYRCEDERFELDVVLETNLATIRVLEAIQKKLSRLSAEEQAKFRLDNTLGGTSEVIHRKALQRIYADKAADIIDGLRKNPSIAVPIVLKRLKMKEEEWREAQRGFNKVWREQNEKYYLKSLDHQGINFKQNDTKVLRSKSLLNEIESIYDERQEQATEENAGVPVGPHLSLAYEDKQILEDAAALIIHHVKRQTGIQKEDKYKIKQIMHHFIPDLLFAQRGDLSDVEEEEEEEMDVDEATGAVKKHNGVGGSPPKSKLLFSNTAAQKLRGMDEVYNLFYVNNNWYIFMRLHQILCLRLLRICSQAERQIEEENREREWEREVLGIKRDKSDSPAIQLRLKEPMDVDVEDYYPAFLDMVRSLLDGNIDSSQYEDSLREMFTIHAYIAFTMDKLIQSIVRQLQHIVSDEICVQVTDLYLAENNNGATGGQLNTQNSRSLLESTYQRKAEQLMSDENCFKLMFIQSQGQVQLTIELLDTEEENSDDPVEAERWSDYVERYMNSDTTSPELREHLAQKPVFLPRNLRRIRKCQRGREQQEKEGKEGNSKKTMENVDSLDKLECRFKLNSYKMVYVIKSEDYMYRRTALLRAHQSHERVSKRLHQRFQAWVDKWTKEHVPREMAAETSKWLMGEGLEGLVPCTTTCDTETLHFVSINKYRVKYGTVFKAP

binding [2]: binds
B2: OGT, endogenous in HEK293T cells, O15294 1-1046 (enzyme)
chain: MASSVGNVADSTEPTKRMLSFQGLAELAHREYQAGDFEAAERHCMQLWRQEPDNTGVLLLLSSIHFQCRRLDRSAHFSTLAIKQNPLLAEAYSNLGNVYKERGQLQEAIEHYRHALRLKPDFIDGYINLAAALVAAGDMEGAVQAYVSALQYNPDLYCVRSDLGNLLKALGRLEEAKACYLKAIETQPNFAVAWSNLGCVFNAQGEIWLAIHHFEKAVTLDPNFLDAYINLGNVLKEARIFDRAVAAYLRALSLSPNHAVVHGNLACVYYEQGLIDLAIDTYRRAIELQPHFPDAYCNLANALKEKGSVAEAEDCYNTALRLCPTHADSLNNLANIKREQGNIEEAVRLYRKALEVFPEFAAAHSNLASVLQQQGKLQEALMHYKEAIRISPTFADAYSNMGNTLKEMQDVQGALQCYTRAIQINPAFADAHSNLASIHKDSGNIPEAIASYRTALKLKPDFPDAYCNLAHCLQIVCDWTDYDERMKKLVSIVADQLEKNRLPSVHPHHSMLYPLSHGFRKAIAERHGNLCLDKINVLHKPPYEHPKDLKLSDGRLRVGYVSSDFGNHPTSHLMQSIPGMHNPDKFEVFCYALSPDDGTNFRVKVMAEANHFIDLSQIPCNGKAADRIHQDGIHILVNMNGYTKGARNELFALRPAPIQAMWLGYPGTSGALFMDYIITDQETSPAEVAEQYSEKLAYMPHTFFIGDHANMFPHLKKKAVIDFKSNGHIYDNRIVLNGIDLKAFLDSLPDVKIVKMKCPDGGDNADSSNTALNMPVIPMNTIAEAVIEMINRGQIQITINGFSISNGLATTQINNKAATGEEVPRTIIVTTRSQYGLPEDAIVYCNFNQLYKIDPSTLQMWANILKRVPNSVLWLLRFPAVGEPNIQQYAQNMGLPQNRIIFSPVAPKEEHVRRGQLADVCLDTPLCNGHTTGMDVLWAGTPMVTMPGETLASRVAASQLTCLGCLELIAKNRQEYEDIAVKLGTDLEYLKKVRGKVWKQRISSPLFNTKQYTMELERLYLQMWEHYAAGNKPDHMIKPVEVTESA

binding [3]: binds
binding [4]: binds
B3: OGT, endogenous in HEK293T cells (enzyme, UniProt O15294 1-1046)
chain: B2 chain
